In test [1] the target is inositol 1,4,5-trisphosphate receptor type 1 (InsP3R1), endogenous mouse protein (mouse (endogenous in RAW264.7)) (UniProt P11881). In words: co-IP; endogenous proteins in RAW264.7 lysates (1x DPBS, 1% Triton X-100), cells stimulated with C. albicans (MOI = 10) or not; antibodies (anti-InsP3R1, anti-InsP3R3, anti-SEC5 or control rabbit IgG) on protein G agarose, 2 h; western blot. (In general: Immunoblotting shows a protein as a band on a membrane.)

By UniProt entry, the sequences of proteins in these tests, tags left out. Where a name states a change or a piece, a line headed by the entry shows the natural chain unless it says otherwise. Residues count along the entry.
UniProt P11881, whole entry: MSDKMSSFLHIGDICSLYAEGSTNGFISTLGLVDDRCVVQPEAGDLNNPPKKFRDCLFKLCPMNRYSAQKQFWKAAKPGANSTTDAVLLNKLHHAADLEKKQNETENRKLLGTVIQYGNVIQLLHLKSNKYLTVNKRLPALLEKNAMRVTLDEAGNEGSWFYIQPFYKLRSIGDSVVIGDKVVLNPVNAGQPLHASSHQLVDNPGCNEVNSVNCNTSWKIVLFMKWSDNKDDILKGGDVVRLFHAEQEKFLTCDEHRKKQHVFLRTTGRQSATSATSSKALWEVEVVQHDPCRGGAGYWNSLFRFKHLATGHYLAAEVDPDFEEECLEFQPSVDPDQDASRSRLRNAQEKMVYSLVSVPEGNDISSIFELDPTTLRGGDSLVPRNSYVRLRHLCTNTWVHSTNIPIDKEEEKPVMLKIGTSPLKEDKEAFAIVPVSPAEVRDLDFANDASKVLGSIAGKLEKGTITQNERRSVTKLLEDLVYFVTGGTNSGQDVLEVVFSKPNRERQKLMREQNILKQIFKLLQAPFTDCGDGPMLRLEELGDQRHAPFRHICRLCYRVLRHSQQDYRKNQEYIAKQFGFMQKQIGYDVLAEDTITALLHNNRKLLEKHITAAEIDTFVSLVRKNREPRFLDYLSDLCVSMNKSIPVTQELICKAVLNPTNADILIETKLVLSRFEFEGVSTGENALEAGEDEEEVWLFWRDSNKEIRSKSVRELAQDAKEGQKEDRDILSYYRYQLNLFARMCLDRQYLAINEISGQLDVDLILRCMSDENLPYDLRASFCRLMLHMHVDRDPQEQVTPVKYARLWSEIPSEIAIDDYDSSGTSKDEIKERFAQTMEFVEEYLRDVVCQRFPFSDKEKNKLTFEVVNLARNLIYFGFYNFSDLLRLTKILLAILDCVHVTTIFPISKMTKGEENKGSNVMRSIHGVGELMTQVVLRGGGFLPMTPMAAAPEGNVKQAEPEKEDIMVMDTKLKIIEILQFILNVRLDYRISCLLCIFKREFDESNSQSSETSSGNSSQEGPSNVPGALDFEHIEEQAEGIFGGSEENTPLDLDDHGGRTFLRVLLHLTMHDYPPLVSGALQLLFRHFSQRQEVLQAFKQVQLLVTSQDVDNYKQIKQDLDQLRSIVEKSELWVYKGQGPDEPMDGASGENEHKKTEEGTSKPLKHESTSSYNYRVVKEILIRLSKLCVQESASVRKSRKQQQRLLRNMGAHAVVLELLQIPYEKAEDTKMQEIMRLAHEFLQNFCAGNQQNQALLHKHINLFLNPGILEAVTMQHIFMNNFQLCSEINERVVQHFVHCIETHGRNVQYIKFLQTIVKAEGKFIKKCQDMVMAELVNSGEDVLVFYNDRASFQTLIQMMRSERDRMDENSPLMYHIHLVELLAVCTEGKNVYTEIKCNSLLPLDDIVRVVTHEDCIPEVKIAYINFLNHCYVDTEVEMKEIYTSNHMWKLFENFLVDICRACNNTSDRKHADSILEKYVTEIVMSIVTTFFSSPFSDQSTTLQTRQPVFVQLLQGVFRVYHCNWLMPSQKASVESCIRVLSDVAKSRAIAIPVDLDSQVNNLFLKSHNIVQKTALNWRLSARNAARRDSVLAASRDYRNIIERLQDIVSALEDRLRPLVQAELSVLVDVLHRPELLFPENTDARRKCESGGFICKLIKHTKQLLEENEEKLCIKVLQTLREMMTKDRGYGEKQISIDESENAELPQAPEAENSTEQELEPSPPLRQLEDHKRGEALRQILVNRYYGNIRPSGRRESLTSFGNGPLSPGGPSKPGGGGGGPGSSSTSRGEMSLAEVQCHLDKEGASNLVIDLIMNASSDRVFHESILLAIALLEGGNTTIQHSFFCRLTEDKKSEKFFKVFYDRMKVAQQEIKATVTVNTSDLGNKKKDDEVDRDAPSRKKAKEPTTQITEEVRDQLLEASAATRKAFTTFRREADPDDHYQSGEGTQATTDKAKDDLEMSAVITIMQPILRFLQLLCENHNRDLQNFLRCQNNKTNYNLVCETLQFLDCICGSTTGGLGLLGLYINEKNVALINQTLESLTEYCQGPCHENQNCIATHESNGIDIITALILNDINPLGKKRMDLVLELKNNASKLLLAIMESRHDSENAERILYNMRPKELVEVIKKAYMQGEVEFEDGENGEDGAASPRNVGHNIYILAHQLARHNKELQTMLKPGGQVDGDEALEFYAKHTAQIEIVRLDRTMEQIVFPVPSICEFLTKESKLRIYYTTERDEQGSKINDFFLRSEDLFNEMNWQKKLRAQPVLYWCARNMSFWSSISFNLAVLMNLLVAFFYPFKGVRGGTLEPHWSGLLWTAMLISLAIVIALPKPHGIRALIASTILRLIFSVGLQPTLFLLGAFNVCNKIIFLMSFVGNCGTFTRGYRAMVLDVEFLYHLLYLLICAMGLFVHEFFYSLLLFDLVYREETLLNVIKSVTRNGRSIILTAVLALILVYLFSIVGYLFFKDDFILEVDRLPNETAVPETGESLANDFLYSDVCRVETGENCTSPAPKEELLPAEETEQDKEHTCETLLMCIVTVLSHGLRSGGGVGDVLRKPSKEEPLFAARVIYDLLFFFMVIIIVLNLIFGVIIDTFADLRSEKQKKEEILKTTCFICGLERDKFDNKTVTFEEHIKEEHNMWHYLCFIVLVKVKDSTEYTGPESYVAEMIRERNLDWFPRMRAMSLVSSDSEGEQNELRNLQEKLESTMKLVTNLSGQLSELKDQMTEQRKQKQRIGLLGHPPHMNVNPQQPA
UniProt P70227, whole entry: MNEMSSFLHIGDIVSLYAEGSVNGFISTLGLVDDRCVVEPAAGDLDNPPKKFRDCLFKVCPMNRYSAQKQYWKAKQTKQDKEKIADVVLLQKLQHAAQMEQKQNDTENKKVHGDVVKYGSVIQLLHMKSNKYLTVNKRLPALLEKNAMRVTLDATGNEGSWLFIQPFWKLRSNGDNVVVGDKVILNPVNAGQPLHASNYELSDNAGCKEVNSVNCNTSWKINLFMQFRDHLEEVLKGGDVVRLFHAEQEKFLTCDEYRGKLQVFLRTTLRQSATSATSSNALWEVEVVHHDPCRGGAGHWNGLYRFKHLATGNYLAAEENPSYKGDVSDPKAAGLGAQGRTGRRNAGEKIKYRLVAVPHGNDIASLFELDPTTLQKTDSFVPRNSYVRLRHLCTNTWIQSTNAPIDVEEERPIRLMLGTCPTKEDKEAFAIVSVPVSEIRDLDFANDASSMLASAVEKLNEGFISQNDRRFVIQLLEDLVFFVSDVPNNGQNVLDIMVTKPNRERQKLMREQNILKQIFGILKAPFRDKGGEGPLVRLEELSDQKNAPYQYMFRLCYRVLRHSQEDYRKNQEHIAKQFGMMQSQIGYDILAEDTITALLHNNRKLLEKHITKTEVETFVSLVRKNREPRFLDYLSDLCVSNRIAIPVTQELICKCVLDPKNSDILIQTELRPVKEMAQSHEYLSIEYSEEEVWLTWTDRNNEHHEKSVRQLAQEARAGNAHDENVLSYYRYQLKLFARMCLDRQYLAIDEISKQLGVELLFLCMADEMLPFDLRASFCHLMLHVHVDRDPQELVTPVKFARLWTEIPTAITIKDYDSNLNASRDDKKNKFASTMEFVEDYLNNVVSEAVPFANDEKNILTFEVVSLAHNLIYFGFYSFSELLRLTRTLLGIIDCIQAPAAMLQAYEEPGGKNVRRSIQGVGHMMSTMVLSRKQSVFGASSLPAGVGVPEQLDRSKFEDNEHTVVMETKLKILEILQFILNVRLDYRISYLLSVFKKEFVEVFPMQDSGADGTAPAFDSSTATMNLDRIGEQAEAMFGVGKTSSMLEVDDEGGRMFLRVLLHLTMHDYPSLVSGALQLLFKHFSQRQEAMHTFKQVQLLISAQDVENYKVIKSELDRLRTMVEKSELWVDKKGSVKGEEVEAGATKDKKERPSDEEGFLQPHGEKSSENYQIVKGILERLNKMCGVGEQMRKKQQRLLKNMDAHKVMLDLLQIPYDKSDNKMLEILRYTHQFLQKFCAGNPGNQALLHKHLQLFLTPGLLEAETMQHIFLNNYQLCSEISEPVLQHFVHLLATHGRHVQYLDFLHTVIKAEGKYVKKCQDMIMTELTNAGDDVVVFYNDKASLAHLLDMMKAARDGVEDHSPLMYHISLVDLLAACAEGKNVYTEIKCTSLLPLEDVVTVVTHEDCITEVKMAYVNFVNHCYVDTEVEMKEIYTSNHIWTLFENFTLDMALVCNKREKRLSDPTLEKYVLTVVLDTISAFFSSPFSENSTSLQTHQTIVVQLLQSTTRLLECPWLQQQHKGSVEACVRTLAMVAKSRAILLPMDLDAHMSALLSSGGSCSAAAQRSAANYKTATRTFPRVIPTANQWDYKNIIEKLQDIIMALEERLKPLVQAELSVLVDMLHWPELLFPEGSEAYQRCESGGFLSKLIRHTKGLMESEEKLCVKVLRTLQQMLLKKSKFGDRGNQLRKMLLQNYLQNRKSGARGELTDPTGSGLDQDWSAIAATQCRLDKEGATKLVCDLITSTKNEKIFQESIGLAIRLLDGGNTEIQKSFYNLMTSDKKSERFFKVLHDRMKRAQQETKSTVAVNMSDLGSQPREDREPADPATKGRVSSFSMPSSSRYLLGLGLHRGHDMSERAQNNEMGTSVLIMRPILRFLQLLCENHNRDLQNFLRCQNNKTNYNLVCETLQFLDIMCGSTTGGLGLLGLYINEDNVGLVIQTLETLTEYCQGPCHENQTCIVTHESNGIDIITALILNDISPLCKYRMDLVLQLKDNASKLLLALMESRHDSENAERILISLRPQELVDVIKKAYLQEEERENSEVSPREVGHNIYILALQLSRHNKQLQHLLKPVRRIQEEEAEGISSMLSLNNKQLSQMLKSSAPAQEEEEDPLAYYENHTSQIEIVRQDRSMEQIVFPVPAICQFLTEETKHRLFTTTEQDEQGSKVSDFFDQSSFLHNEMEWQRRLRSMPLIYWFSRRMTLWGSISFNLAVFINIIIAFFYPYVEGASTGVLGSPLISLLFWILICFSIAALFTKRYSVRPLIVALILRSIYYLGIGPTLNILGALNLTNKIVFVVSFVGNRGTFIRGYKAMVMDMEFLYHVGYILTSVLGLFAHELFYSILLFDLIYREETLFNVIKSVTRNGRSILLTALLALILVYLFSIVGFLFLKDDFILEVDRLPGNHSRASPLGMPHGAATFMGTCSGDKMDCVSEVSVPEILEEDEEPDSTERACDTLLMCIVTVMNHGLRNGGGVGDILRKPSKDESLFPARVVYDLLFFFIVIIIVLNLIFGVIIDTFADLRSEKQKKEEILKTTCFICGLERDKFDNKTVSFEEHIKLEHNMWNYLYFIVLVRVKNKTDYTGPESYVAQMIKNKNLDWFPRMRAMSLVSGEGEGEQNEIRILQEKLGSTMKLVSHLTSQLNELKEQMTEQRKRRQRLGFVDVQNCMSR
UniProt P29994, 2571-2606: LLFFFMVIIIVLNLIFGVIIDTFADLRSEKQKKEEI
UniProt Q9D4H1, whole entry: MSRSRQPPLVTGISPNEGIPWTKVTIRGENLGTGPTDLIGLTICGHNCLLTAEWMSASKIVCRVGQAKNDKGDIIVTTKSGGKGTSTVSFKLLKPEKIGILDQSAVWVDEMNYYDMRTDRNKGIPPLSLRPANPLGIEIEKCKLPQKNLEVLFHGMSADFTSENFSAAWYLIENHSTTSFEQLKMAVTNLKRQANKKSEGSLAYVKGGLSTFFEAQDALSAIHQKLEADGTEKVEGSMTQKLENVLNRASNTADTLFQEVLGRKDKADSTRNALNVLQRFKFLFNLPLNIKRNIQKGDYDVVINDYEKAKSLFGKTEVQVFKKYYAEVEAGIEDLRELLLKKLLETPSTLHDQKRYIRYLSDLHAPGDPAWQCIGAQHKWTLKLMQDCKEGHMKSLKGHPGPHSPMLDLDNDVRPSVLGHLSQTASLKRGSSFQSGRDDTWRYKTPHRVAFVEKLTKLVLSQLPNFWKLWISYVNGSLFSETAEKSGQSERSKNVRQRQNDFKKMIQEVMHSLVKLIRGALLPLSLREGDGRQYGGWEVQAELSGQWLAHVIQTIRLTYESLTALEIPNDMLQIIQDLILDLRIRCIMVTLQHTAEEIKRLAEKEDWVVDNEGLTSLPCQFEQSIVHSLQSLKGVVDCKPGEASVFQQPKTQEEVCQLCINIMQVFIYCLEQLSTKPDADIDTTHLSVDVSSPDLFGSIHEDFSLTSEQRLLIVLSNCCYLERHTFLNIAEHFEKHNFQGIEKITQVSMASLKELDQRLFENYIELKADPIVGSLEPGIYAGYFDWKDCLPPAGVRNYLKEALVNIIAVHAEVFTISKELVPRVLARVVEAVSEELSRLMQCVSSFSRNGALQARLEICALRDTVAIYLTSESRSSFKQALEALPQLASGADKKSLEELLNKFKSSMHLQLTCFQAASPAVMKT

Test [2] has as its target inositol 1,4,5-trisphosphate receptor type 3 (InsP3R3), endogenous mouse protein (mouse (endogenous in RAW264.7 and BMDM)) (UniProt P70227). The test is described as above.
For test [3] the target is unchanged. Briefly: FRET or BRET; acceptor photobleaching FRET by confocal microscopy on immunostained BMDM cells; donor Alexa Fluor 488, acceptor Cy3; co-localised regions against non-co-localised regions. (In BRET a luciferase serves as donor, and the signal depends on an acceptor being close.)
Test [4] has as its target GST-InsP3R-H1 (GST fusion of the C-terminal α-helix H1 of rat type 1 InsP3R) (rat) (UniProt P29994). In words: pull-down; 20 μg GST fusion protein bound to beads with RAW264.7 lysate (1x DPBS, 1% Triton X-100, 0.5-1 mg/ml protein, 1 ml), 4°C, 2 h; cells stimulated with C. albicans (MOI = 10) or not; western blot; only the target purified.
Test [5] concerns the target exocyst complex component 2 (SEC5), endogenous mouse protein (mouse (endogenous in RAW264.7, BMDM and mouse brain)) (UniProt Q9D4H1). Briefly: co-IP; endogenous proteins in RAW264.7 lysates (1x DPBS, 1% Triton X-100), cells stimulated with C. albicans (MOI = 10) or not; antibodies (anti-InsP3R1, anti-InsP3R3, anti-SEC5 or control rabbit IgG) on protein G agarose, 2 h; western blot.

Test [6] addresses His-SEC5-N (N-terminus of SEC5, aa 1-440) (human) (UniProt Q96KP1). Briefly: co-IP; immunoprecipitation with purified V5-TBK1 and purified His-SEC5-N (aa 1-440) in the presence of H1-TAT or H1S-TAT peptides; both purified.

These are yes or no findings as the source states them, for the method shown. For part of these data: In cells and extracts the contact can be indirect. Some entries that bind do so weakly or less than the wild type. For part of these data: Sequences can lack the tags named with a protein.

Regarding “exocyst complex component 2 (SEC5), endogenous mouse protein (from UniProt Q9D4H1 1-924)”, the binding result in test [1], in test [2], in test [3] and in test [4] was “binds” throughout.

For the molecule “inositol 1,4,5-trisphosphate receptor type 3 (InsP3R3), endogenous mouse protein (from UniProt P70227 1-2670)”, in test [5], the binding entry is on record as “binds”.

B1: V5-TBK1 (enzyme, UniProt Q9UHD2 1-729)
chain: MQSTSNHLWLLSDILGQGATANVFRGRHKKTGDLFAIKVFNNISFLRPVDVQMREFEVLKKLNHKNIVKLFAIEEETTTRHKVLIMEFCPCGSLYTVLEEPSNAYGLPESEFLIVLRDVVGGMNHLRENGIVHRDIKPGNIMRVIGEDGQSVYKLTDFGAARELEDDEQFVSLYGTEEYLHPDMYERAVLRKDHQKKYGATVDLWSIGVTFYHAATGSLPFRPFEGPRRNKEVMYKIITGKPSGAISGVQKAENGPIDWSGDMPVSCSLSRGLQVLLTPVLANILEADQEKCWGFDQFFAETSDILHRMVIHVFSLQQMTAHKIYIHSYNTATIFHELVYKQTKIISSNQELIYEGRRLVLEPGRLAQHFPKTTEENPIFVVSREPLNTIGLIYEKISLPKVHPRYDLDGDASMAKAITGVVCYACRIASTLLLYQELMRKGIRWLIELIKDDYNETVHKKTEVVITLDFCIRNIEKTVKVYEKLMKINLEAAELGEISDIHTKLLRLSSSQGTIETSLQDIDSRLSPGGSLADAWAHQEGTHPKDRNVEKLQVLLNCMTEIYYQFKKDKAERRLAYNEEQIHKFDKQKLYYHATKAMTHFTDECVKKYEAFLNKSEEWIRKMLHLRKQLLSLTNQCFDIEEEVSKYQEYTNELQETLPQKMFTASSGIKHTMTPIYPSSNTLVEMTLGMKKLKEEMEGVVKELAENNHILERFGSLTMDGGLRNVDCL
For the molecule B1, the binding result in test [6] is “binds”.

Source of the values: article PMC5921305.
